# From publication PMC10689778
# Chains of the proteins cited; added tags and fusions are not shown. Lines headed by an entry give the natural chain unless they say otherwise; changes in a name come on top. Residues count along the entry.
# UniProt O75460: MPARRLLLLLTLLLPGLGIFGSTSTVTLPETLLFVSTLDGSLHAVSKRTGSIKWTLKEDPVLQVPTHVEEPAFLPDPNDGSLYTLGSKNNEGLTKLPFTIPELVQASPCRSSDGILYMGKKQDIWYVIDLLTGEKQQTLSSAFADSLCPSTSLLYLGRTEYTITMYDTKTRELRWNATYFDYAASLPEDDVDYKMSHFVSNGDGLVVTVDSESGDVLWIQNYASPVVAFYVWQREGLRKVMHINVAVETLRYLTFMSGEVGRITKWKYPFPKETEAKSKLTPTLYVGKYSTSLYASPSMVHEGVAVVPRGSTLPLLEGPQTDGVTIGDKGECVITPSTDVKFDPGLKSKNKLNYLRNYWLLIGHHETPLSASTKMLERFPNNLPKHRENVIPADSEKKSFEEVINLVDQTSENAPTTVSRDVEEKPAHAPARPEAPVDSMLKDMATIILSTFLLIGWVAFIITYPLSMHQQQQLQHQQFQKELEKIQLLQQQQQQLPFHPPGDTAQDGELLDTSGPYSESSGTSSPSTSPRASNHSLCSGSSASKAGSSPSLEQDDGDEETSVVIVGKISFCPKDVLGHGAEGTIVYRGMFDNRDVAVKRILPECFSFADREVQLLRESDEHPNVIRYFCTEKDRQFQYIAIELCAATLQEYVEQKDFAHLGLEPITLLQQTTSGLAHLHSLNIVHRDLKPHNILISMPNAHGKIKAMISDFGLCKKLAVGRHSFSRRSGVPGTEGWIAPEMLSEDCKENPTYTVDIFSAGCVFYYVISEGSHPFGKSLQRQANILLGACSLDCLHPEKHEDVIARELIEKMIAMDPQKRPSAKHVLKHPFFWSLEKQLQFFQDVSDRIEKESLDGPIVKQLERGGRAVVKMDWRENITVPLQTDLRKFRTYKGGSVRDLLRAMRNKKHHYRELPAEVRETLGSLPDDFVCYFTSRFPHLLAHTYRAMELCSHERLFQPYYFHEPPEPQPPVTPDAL
# phosphorylated IRE1α (p-IRE1α): residues 19-977 of O75460
# IRE1α kinase domain (524 aa-827 aa): residues 524-827 of O75460
# IRE1α RNase domain (828 aa-977 aa): residues 828-977 of O75460
# UniProt P28799, residues 18-593: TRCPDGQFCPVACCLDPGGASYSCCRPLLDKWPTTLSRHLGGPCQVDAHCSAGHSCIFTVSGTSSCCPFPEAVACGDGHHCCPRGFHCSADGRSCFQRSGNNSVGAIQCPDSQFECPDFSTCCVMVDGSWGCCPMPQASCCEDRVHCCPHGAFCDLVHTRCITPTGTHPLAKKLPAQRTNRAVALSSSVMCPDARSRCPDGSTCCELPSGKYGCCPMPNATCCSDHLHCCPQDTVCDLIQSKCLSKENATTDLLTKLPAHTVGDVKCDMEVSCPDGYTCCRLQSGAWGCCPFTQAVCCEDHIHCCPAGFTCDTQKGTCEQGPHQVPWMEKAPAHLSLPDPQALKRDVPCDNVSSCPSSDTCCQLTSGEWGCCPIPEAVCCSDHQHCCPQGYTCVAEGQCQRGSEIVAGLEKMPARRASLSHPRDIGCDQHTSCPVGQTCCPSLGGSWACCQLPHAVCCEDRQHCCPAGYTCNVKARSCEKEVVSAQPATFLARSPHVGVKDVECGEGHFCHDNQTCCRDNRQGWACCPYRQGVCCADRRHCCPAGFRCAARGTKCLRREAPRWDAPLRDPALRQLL
# These are yes or no findings as the source states them, for the method shown. In cells and extracts the contact can be indirect. Some entries that bind do so weakly or less than the wild type.
# Tests used:
# Test in all cases: co-IP; cells lysed with cold IP-lysis buffer (50 mM Tris-HCl, 150 mM NaCl, 2 mM EDTA, 0.5% NP40, pH 7.5) with 1 mM PMSF for 30 min; as described in ref. 16
# [1] = biological target: IRE1α (as used in the co-immunoprecipitation) (human) (UniProt O75460)
# [2] = biological target: phosphorylated IRE1α (p-IRE1α) (human) (UniProt O75460)
# [3] = biological target: IRE1α kinase domain (524 aa-827 aa) (human) (UniProt O75460)
# [4] = biological target: IRE1α RNase domain (828 aa-977 aa) (human) (UniProt O75460)
substance,measurement,setting,value
progranulin (PGRN) (as used in the co-immunoprecipitations) (from UniProt P28799 18-593),binding,[1],binds
same,binding,[2],binds
same,binding,[3],binds
same,binding,[4],no binding
